Measured values published in patent US20160031957A1 (UNITED STATES OF AMERICA AS REPRESENTED BY THE SECRETARY …, published 2016).
Results are given in words; binding and its absence hold for the method and conditions named. Some binding calls cover weakened binding; strength is not graded here.

Chains of the proteins cited; added tags and fusions are not shown. Lines headed by an entry give the natural chain unless they say otherwise; changes in a name come on top.
UniProt Q9BXL7: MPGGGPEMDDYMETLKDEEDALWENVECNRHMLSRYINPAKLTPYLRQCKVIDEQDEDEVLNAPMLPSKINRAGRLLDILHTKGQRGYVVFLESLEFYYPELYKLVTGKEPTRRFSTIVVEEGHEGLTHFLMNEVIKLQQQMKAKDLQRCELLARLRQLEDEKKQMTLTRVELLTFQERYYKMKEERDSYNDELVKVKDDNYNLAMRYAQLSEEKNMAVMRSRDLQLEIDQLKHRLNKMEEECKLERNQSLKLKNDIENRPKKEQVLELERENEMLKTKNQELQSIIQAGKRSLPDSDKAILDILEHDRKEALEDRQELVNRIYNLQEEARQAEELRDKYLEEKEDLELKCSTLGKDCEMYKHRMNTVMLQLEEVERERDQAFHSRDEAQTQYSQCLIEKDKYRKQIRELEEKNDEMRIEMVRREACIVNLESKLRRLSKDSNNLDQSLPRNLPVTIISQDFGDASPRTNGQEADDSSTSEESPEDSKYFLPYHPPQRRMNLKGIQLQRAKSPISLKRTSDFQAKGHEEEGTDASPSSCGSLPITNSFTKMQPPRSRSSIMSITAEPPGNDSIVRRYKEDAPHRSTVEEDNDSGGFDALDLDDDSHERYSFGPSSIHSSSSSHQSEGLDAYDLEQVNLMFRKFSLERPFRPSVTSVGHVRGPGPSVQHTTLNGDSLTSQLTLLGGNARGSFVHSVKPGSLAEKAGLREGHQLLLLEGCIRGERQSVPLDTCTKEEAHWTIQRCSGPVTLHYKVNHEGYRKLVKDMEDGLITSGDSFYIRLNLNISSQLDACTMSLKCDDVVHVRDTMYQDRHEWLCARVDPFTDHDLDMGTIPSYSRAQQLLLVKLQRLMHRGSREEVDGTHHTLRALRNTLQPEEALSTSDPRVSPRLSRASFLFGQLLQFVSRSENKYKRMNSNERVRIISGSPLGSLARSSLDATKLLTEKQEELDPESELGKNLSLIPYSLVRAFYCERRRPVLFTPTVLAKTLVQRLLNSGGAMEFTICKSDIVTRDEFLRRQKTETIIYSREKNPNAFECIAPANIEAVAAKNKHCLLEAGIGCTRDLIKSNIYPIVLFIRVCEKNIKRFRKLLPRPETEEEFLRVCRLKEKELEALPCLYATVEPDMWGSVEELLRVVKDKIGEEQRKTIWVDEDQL

Molecular target: CBM complex (CARD11, MALT1 and BCL10) (UniProt Q9BXL7)
Assay: recruitment to the CBM complex in ABC DLBCL cells; method not detailed

B1: A20 (enzyme, UniProt P21580 2-790, looked up)
chain: AEQVLPQALYLSNMRKAVKIRERTPEDIFKPTNGIIHHFKTMHRYTLEMFRTCQFCPQFREIIHKALIDRNIQATLESQKKLNWCREVRKLVALKTNGDGNCLMHATSQYMWGVQDTDLVLRKALFSTLKETDTRNFKFRWQLESLKSQEFVETGLCYDTRNWNDEWDNLIKMASTDTPMARSGLQYNSLEEIHIFVLCNILRRPIIVISDKMLRSLESGSNFAPLKVGGIYLPLHWPAQECYRYPIVLGYDSHHFVPLVTLKDSGPEIRAVPLVNRDRGRFEDLKVHFLTDPENEMKEKLLKEYLMVIEIPVQGWDHGTTHLINAAKLDEANLPKEINLVDDYFELVQHEYKKWQENSEQGRREGHAQNPMEPSVPQLSLMDVKCETPNCPFFMSVNTQPLCHECSERRQKNQNKLPKLNSKPGPEGLPGMALGASRGEAYEPLAWNPEESTGGPHSAPPTAPSPFLFSETTAMKCRSPGCPFTLNVQHNGFCERCHNARQLHASHAPDHTRHLDPGKCQACLQDVTRTFNGICSTCFKRTTAEASSSLSTSLPPSCHQRSKSDPSRLVRSPSPHSCHRAGNDAPAGCLSQAARTPGDRTGTSKCRKAGCVYFGTPENKGFCTLCFIEYRENKHFAAASGKVSPTASRFQNTIPCLGRECGTLGSTMFEGYCQKCFIEAQNQRFHEAKRTEEQLRSSQRRDVPRTTQSTSRPKCARASCKNILACRSEELCMECQHPNQRMGPGAHRGEPAPEDPPKQRCRAPACDHFGNAKCNGYCNECFQFKQMYG
With B1 the binding was “binds”.
